Measurements: patent publication US20060078961A1, “Systems and methods for rapidly changing the solution environment around sensors” (priority 2002, published 2006)
At least one structure is not confirmed: it was looked up by name or label, or the drawing left a doubt.

Legend:
PC-12 cell = experiment: Rapid scanning of a patch-clamped cell across interdigitated streams of acetylcholine and buffer (7-channel structure); type: cell-based; settings: 1 mM acetylcholine
PC-12 cells = experiment: Re-sensitization of patch-clamped cells by microfluidic buffer superfusion and cell scanning (whole-cell patch clamp); type: cell-based; settings: 1 mM acetylcholine

## CC(=O)OCC[N+](C)(C)C [acetylcholine]
PC-12 cell; fast scan rate (FIG. 21D, 4 mm/s, tens of ms), flow rate 6.8 mm/s
  Desensitisation: no desensitisation can be detected
PC-12 cell; slow scan rate (FIG. 21A, 0.61 mm/s), flow rate 6.8 mm/s
  Whole cell current peak response from one acetylcholine stream to the next: maximal response for each peak decreases
PC-12 cell; slow scan rate (seconds; FIG. 22, 6.25 μm/s), flow rate 2.7 mm/s
  Desensitisation: desensitisation is pronounced
PC-12 cells; exposure for longer periods of time (>5 s), whole-cell
  De-sensitization of the current response: decrease of the mean whole-cell current
PC-12 cells; shorter exposure times (<5 s) or repeated short exposures with re-sensitization in agonist free buffer
  De-sensitization of the cells: No de-sensitization
